Where “and” joins values, the source holds several entries; their conditions need not be identical. Equal entries are not always repeated. The campaign covered roughly 300,000 compounds. About 5,400 (1.8%) were called active. The shares of active, inactive and inconclusive entries below differ from those in the screen. Calls come from the whole dose curve; tested in HEK293 cells. Where the call is inconclusive, the potency comes from a doubtful curve fit. A structure can be active in one record and inactive in another.
Assay: qHTS for inhibitors of binding or entry into cells for Marburg Virus
Details: Marburg virus pseudotyped entry inhibition, cell reporter; series mostly up to 37.8 µM
Potency is the fitted concentration of half-maximal effect.

Structure (SMILES) | Potency
CCOC(=O)c1c(C)[nH]c(C(=O)OCC(=O)NCCc2ccc(OCC)c(OCC)c2)c1C | inactive
O=C1CCCN1CN1CCCCC1 | inconclusive: 12.6 µM [activator, single point]
CCC(C)NC(=O)c1cc2c(Cl)nc3ccc(C)cc3c2s1 (stereo unspecified) | inconclusive: 5.01 µM [activator, single point]
COc1ccccc1-c1nnc(Nc2nc3c(OC)cccc3s2)o1 | inconclusive: 1.58 µM [inhibitor, full curve, poor fit]
N#CC1CC(c2ccccc2)=NN1c1ccccc1[N+](=O)[O-] (stereo unspecified) | inconclusive: 1.12 µM [activator, partial curve, poor fit]
C#CCn1c(=NC(=O)c2ccc(Br)s2)sc2cc(NC(C)=O)ccc21 | inconclusive: 6.31 µM [activator, single point]
CN1CCc2c(c3ccccc3n2C)C1 | inconclusive: 23.1 µM [activator, single point]
NNC(=O)c1ccc(O)cc1 | inconclusive: 6.51 µM [activator, single point] and inconclusive: 100 nM [inhibitor, partial curve, poor fit]
COc1ccc(NC(=O)c2ccc(S(=O)(=O)N3CCCCCC3)cc2)c(OC)c1 | inconclusive: 35.5 µM [inhibitor, single point]
O=S(=O)(/N=C(/Nc1ccc(Cl)c(S(=O)(=O)Nc2ccccc2Cl)c1)c1ccc(F)cc1)c1ccccc1 | inconclusive: 25.1 µM [inhibitor, single point] and inconclusive: 12.6 µM [inhibitor, partial curve, poor fit]
Oc1ccccc1O | active: 2.51 µM
COC(=O)CSc1nc(N)c(C#N)c(CC(C)C)c1C#N | inconclusive: 6.31 µM [inhibitor, single point]
O=C(Nc1cccc(C(=O)O)c1)Nc1ccccc1Cl | active: 8.91 µM
COc1cc(C2CC(=O)Nc3c2c(=O)[nH]c2nc4ccccc4n32)ccc1O (stereo unspecified) | inactive
O=C(CNC(=O)c1ccc(Cl)cc1Cl)OCC(=O)N1CCN(c2ccccc2)CC1 | inactive
CCn1c(-c2ccccc2Cl)nn(CC(=O)Nc2cc(Cl)ccc2Cl)c1=S | inconclusive: 22.4 µM [inhibitor, single point]
O=C(Cc1ccccc1)NCC(=O)OCC(=O)c1ccccc1Cl | inactive
Cc1cc(OCCCC(=O)Nc2cc(S(=O)(=O)N3CCOCC3)ccc2N2CCOCC2)ccc1Cl | inconclusive: 35.5 µM [inhibitor, single point]
Cc1ccnc(NC(c2ccccc2)c2ccc3cccnc3c2O)c1 (stereo unspecified) | inconclusive: 11.2 µM [inhibitor, partial curve, poor fit]
CCC(C)(C)NC(=O)C(c1ccc(C)o1)N(C(=O)c1csnn1)c1cccc(F)c1 (stereo unspecified) | inconclusive: 7.3 µM [inhibitor, single point]
O=C(CCC(=O)Nc1ccc(Cl)cc1Cl)N/N=C/c1ccc([N+](=O)[O-])o1 | inconclusive: 9.2 µM [inhibitor, partial curve, poor fit]

Among those listed so far, 2 have a furan ring, fused or not:
Structure (SMILES) | Potency
CCC(C)(C)NC(=O)C(c1ccc(C)o1)N(C(=O)c1csnn1)c1cccc(F)c1 (stereo unspecified) | inconclusive: 7.3 µM [inhibitor, single point]
O=C(CCC(=O)Nc1ccc(Cl)cc1Cl)N/N=C/c1ccc([N+](=O)[O-])o1 | inconclusive: 9.2 µM [inhibitor, partial curve, poor fit]

(cont.)

Structure (SMILES) | Potency
Cc1ccccc1-c1nnn(CC(=O)NC(=O)NC2CCCC2)n1 | inconclusive: 12.6 µM [activator, partial curve, poor fit]
Cc1ccc(OCc2nc3ccccc3[nH]2)cc1 | inconclusive: 18.4 µM [inhibitor, partial curve, poor fit]
CC(C)Cc1nc2ccccc2n1CCc1ccccc1 | inconclusive: 5.01 µM [inhibitor, full curve, poor fit]
CN1CCN(Cc2nc3ccccc3c(=O)n2Cc2nc(-c3ccccc3F)cs2)CC1 | inconclusive: 35.5 µM [inhibitor, single point]
CCCc1ccc(Oc2cc(Cl)nc(N)n2)cc1 | inconclusive: 17.8 µM [activator, partial curve, poor fit]
O=c1[nH]c(=O)n(CCC2=CCCCC2)c(O)c1C=NC1CCN(Cc2ccccc2)CC1 | inconclusive: 1.26 µM [inhibitor, full curve]
O=[N+]([O-])c1ccc(CSc2nc3ccccc3o2)cc1 | inconclusive: 1.83 µM [activator, partial curve, poor fit]
CCCc1[nH]nc2c1[C@@H](c1c(C)nn(-c3ccccc3)c1Cl)C(C#N)=C(N)O2 | inconclusive: 2.24 µM [inhibitor, partial curve, poor fit]
CCOc1ccc(-c2noc(CCCC(=O)NC3CCCC3)n2)cc1OC | inconclusive: 35.5 µM [inhibitor, single point]
Cc1ccc(-n2c(CCC(=O)O)ccc2-c2cccs2)cc1C | inactive
CC(=O)N(c1ccccc1C)c1ccccc1C | inconclusive: 0.562 µM [inhibitor, full curve, poor fit]
COC(=O)c1ccsc1NC(=O)CSc1nnnn1-c1ccccc1SC | inconclusive: 29.1 µM [inhibitor, single point]
O=C(CSc1nc2c(sc3ccccc32)c(=O)n1-c1ccccc1)NCc1ccco1 | inconclusive: 20.6 µM [inhibitor, partial curve, poor fit]
O=C(CSc1ncnc2scc(-c3ccccc3)c12)N1CCN(c2ccccc2F)CC1 | inconclusive: 11.2 µM [inhibitor, single point]
Cc1ccc(Cn2ccnc2C(=O)Nc2ccccc2)cc1 | inactive
CCOC(=O)c1cc2c(=O)c3ccccc3oc2nc1C | inactive
O=C(Nc1ccc2c(c1)CCC2)C1CCN(c2c3c(nc4ncnn24)CCC3)CC1 | inconclusive: 16.4 µM [inhibitor, partial curve]
CCOC(=O)N/N=C\C=C\c1ccc2c(c1)OCO2 | inconclusive: 0.794 µM [activator, full curve, poor fit]
O=C(Nc1ccc(C(F)(F)F)cc1)C1CCC(CNS(=O)(=O)c2cccc3nsnc23)CC1 (stereo unspecified) | inconclusive: 2.24 µM [activator, full curve, poor fit]
Cc1nc2ccc(NC(=O)c3ccc([N+](=O)[O-])cc3)cc2s1 | inconclusive: 1 µM [inhibitor, partial curve, poor fit]

— PubChem BioAssay AID540276 (National Center for Advancing Translational Sciences (NCATS), 2011)
